Paper PMC6770581, “New Thalidomide-Resembling Dicarboximides Target ABC50 Protein and Show Antileukemic and Immunomodulatory Activities” (Biomolecules, 2019)

System: K562 cells
Test: MTT cytotoxicity assay, K562
Format: cell-based, human
Conditions: ratio of IC50 for HUVEC and K562
Description: Human umbilical vein endothelial cells (purchased from Life Technologies, Carlsbad, CA, USA) were cultured according to the manufacturer’s instructions in Medium 200 supplemented with Low Serum Growth Supplement. 1 × 10^4 cells were seeded on each well on a 96-well plate (Nunc, Roskilde, Denmark). The HeLa (human cervix carcinoma, cat. #93021013), CFPAC (human pancreatic adenocarcinoma, cat. #91112501), K562 (chronic myelogenous leukemia, cat. #89121407), HL-60 (acute myelogenous leukemia, cat. #98070106), and MOLT-4 (Human acute T lymphoblastic leukemia, cat. #85011413) cells were purchased from European Collection of Authenticated Cell Cultures (ECACC). They were cultured in an RPMI 1640 medium supplemented with antibiotics (streptomycin, penicillin) and 10% fetal calf serum (20% for HL60), in a 5% CO2-95% air atmosphere. 7 × 10^3 cells were seeded on each well on a 96-well plate (Nunc). 24 hours later the cells were exposed to the test compounds. The aliquots of stock solutions of the test compounds (freshly prepared in DMSO) were added to the cell cultures to yield final concentrations of 1, 10^−1, 10^−2, 10^−3, 10^−4, and 10^−5 mM. The concentration of DMSO in the cell culture medium was 1%. The IC50 value (the concentration of a test compound required to reduce the cell survival fraction to 50% of the control) was calculated from a dose-response curve and used as a measure of cellular sensitivity to a given treatment. The IC50 values are given as means (± standard deviation (SD)) from 2 independent experiments with 4 technical replicates. The cytotoxicity of all compounds was determined by the MTT (3-(4,5-dimethylthiazol-2-yl)-2,5-diphenyltetrazolium bromide) assay (Sigma, St. Louis, MO, USA). Briefly, after 24 h or 48 h of incubation with a given compound, the cells were treated with the MTT reagent and incubation was continued for 2 h. MTT-formazan crystals were dissolved in 20% SDS and 50% DMF at pH 4.7 and VIS light absorption was measured at 570 and 650 nm on a microplate reader FLUOstar Omega (BMG Labtech, Offenburg, Germany). As a control (100% viability), cells grown in the presence of 1% DMSO were used.

Structure (SMILES) | TI (therapeutic index)
CCC12C(=O)C(CC)(C(c3ccccc3)=C1c1ccccc1)C1C(=O)N(CCN(C)C)C(=O)C12 (centres unmarked) [Compound 1] | 10
CCN(CC)CCN1C(=O)C2C(C1=O)C1(CC)C(=O)C2(CC)C(c2ccccc2)=C1c1ccccc1 (centres unmarked) [Compound 2] | 22
CCC12C(=O)C(CC)(C(c3ccccc3)=C1c1ccccc1)C1C(=O)N(CCN3CCCCC3)C(=O)C12 (centres unmarked) [Compound 3] | 50
CCC12C(=O)C(CC)(C(c3ccccc3)=C1c1ccccc1)C1C(=O)N(CCCN(C)C)C(=O)C12 (centres unmarked) [Compound 4] | 12.5
CCC12C(=O)C(CC)(C(c3ccccc3)=C1c1ccccc1)C1C(=O)N(CC(O)CNC(C)C)C(=O)C12 (centres unmarked) [Compound 5] | 100
CN(C)CCN1C(=O)C2C(C1=O)C1(c3ccccc3)CC2(c2ccccc2)C(c2ccccc2)=C1c1ccccc1 (centres unmarked) [Compound 6] | 100
O=C(CCCCC1SCC2NC(=O)NC21)NCC(O)CN1C(=O)C2C(C1=O)C1(c3ccccc3)CC2(c2ccccc2)C(c2ccccc2)=C1c1ccccc1 (centres unmarked) [Compound 6b] | 0.5
CC12C(=O)C(C)(C(c3ccccc3)=C1c1ccccc1)C1C(=O)N(C3CCC(=O)NC3=O)C(=O)C12 (centres unmarked) [Compound 7, 4-(2,6-dioxopiperidin-3-yl)-1,7-dimethyl-8,9-diphenyl-4-azatricyclo[5.2.1.0^2,6]dec-8-ene-3,5,10-trione] | 1.2
CCC12C(=O)C(CC)(C(c3ccccc3)=C1c1ccccc1)C1C(=O)N(C3CCC(=O)NC3=O)C(=O)C12 (centres unmarked) [Compound 8, 4-(2,6-dioxopiperidin-3-yl)-1,7-diethyl-8,9-diphenyl-4-azatricyclo[5.2.1.0^2,6]dec-8-ene-3,5,10-trione] | 2.6
CC(C)C[C@H](NC(=O)[C@H](Cc1ccccc1)NC(=O)c1cnccn1)B(O)O [bortezomib, reference compound] | 0.25
Nc1ccn([C@@H]2O[C@H](CO)[C@@H](O)[C@@H]2O)c(=O)n1 [cytarabine, reference compound] | 3.3
COc1cccc2c1C(=O)c1c(O)c3c(c(O)c1C2=O)C[C@@](O)(C(=O)CO)C[C@@H]3O[C@H]1C[C@H](N)[C@H](O)[C@H](C)O1 [doxorubicin, reference compound] | 0.67
CCc1c2c(nc3ccc(OC(=O)N4CCC(N5CCCCC5)CC4)cc13)-c1cc3c(c(=O)n1C2)COC(=O)[C@]3(O)CC [irinotecan, reference compound] | 3
CNC(=O)c1cc(Oc2ccc(NC(=O)Nc3ccc(Cl)c(C(F)(F)F)c3)cc2)ccn1 [sorafenib, reference compound] | 6.7
